In PMC12852734, “Design of precision therapeutics for a CKD risk allele by targeting Shroom3-Rock interaction” (Nature Communications, 2025):
No constants are given. Whether binding was seen depends on the method and setting. Binding seen in cells or lysates may run through a third protein. For part of these data: A result given as binding can be weak or reduced; the word gives no strength.

The chains behind the UniProt entries cited, without tags or fusion partners. Where a name states a change or a piece, a line headed by the entry shows the natural chain unless it says otherwise.
UniProt Q8TF72: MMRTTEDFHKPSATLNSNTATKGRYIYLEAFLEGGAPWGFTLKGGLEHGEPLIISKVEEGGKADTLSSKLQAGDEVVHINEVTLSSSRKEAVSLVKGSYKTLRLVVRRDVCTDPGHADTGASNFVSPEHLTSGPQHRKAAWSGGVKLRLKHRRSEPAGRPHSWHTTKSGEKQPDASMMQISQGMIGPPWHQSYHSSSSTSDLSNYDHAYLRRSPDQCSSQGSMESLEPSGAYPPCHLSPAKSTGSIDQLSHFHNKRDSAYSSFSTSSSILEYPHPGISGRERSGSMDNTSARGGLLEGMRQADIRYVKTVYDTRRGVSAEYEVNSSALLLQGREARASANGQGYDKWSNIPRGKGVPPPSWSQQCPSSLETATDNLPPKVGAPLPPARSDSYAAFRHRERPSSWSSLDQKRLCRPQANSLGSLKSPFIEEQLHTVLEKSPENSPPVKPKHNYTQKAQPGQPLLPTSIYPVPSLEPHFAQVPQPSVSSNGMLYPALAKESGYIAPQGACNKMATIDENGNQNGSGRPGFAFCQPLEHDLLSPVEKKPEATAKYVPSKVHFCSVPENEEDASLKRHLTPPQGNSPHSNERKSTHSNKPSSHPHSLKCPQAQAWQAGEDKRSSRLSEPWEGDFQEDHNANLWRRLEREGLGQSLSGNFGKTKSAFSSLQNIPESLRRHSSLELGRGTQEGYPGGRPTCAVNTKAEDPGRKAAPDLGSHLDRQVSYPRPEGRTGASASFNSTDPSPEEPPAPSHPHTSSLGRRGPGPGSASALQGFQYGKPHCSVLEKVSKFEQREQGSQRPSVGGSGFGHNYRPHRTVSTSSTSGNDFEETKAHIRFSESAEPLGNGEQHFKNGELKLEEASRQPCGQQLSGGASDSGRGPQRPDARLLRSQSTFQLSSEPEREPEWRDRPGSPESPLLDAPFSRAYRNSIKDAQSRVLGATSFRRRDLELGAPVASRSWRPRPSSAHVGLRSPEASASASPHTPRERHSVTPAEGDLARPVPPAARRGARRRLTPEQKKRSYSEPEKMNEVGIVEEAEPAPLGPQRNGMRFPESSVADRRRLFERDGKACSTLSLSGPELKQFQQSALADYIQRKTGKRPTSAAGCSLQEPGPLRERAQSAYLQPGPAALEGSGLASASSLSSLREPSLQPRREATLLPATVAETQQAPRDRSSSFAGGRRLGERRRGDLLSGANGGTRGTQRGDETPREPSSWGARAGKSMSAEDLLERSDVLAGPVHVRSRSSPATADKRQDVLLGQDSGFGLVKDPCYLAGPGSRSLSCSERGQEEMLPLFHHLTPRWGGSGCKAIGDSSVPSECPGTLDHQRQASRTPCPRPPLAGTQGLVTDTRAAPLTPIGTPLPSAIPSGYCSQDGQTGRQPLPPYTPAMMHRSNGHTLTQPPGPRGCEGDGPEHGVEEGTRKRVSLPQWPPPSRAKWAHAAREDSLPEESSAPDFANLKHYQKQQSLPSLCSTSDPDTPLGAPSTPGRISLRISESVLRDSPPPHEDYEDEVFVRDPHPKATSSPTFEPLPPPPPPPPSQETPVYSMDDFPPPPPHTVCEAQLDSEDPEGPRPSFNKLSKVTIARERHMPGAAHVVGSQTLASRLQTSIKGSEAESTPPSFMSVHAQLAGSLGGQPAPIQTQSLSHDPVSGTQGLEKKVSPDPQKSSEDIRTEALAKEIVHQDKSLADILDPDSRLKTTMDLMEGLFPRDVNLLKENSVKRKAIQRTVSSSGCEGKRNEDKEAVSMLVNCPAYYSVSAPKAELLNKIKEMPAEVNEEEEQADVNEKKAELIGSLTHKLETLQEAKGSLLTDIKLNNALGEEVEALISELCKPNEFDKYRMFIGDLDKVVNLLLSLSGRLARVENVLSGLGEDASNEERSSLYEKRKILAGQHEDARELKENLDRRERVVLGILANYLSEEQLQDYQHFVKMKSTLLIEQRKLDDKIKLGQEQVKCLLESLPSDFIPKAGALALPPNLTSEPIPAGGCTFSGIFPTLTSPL
UniProt O75116: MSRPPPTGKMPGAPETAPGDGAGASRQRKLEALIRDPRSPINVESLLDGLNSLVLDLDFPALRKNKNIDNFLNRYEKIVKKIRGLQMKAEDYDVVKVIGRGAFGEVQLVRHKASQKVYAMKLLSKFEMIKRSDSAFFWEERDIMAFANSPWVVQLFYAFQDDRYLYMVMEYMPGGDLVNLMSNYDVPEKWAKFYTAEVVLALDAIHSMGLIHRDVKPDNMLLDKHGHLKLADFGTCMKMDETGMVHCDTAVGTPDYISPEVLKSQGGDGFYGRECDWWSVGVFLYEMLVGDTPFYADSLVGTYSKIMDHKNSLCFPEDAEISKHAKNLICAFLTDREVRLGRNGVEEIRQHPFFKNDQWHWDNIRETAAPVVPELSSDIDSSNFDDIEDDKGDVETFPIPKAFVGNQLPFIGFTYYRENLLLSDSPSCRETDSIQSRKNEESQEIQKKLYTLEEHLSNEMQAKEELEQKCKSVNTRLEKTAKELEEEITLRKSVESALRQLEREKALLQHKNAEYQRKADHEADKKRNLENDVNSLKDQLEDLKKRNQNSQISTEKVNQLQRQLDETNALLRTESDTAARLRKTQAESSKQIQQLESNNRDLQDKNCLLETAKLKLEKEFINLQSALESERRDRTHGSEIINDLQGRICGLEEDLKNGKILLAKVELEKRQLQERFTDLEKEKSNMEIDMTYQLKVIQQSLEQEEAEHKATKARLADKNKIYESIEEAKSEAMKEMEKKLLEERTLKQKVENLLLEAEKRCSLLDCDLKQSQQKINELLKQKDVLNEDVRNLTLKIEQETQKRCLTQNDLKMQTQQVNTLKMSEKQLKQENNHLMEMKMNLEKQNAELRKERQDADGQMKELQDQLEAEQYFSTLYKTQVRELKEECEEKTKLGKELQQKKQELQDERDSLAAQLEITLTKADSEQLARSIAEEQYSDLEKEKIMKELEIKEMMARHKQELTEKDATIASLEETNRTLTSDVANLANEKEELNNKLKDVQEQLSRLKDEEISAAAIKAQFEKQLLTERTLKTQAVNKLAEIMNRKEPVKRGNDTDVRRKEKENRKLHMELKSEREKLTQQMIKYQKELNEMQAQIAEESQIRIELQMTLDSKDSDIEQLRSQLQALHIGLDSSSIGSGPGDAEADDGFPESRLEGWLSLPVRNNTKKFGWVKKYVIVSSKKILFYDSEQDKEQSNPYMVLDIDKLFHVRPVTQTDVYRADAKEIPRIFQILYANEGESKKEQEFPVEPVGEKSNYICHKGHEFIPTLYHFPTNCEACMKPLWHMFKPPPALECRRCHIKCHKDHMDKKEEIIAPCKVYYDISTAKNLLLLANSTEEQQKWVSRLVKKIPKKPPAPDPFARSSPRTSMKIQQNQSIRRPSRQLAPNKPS

Experiments:
Assay in all cases: co-IP; lysates of HEK-293T cells transfected with V5-tagged SHROOM3 constructs, collected 36 h after transfection, precipitated with anti-V5-tag mAb magnetic beads; blotted for SHROOM3, ROCK1, ROCK2, ACTB; in one set WT-Sh3 cells were treated with DMSO or D4G before lysis
[1] = target: ASD2Δ-Sh3 (human SHROOM3 with the ASD2 domain deleted, V5-tagged) (human) (UniProt Q8TF72)
[2] = target: PDZΔ-Sh3 (human SHROOM3 with the PDZ domain deleted, V5-tagged) (human) (UniProt Q8TF72)
[3] = target: ASD1Δ-Sh3 (human SHROOM3 with the ASD1 domain deleted, V5-tagged) (human) (UniProt Q8TF72)

binding [1]: no binding | binding [2]: binds | binding [3]: binds
Substance: ROCK2 (Rho-associated coiled-coil kinase 2) (from UniProt O75116 1-1388) (enzyme)
